Experimental data reported in paper PMC8274477.
Results are given in words; binding and its absence hold for the method and conditions named. Some entries that bind do so weakly or less than the wild type.

Protein sequences, listed by entry. Tags and fused reporters are not part of them.
UniProt P46379: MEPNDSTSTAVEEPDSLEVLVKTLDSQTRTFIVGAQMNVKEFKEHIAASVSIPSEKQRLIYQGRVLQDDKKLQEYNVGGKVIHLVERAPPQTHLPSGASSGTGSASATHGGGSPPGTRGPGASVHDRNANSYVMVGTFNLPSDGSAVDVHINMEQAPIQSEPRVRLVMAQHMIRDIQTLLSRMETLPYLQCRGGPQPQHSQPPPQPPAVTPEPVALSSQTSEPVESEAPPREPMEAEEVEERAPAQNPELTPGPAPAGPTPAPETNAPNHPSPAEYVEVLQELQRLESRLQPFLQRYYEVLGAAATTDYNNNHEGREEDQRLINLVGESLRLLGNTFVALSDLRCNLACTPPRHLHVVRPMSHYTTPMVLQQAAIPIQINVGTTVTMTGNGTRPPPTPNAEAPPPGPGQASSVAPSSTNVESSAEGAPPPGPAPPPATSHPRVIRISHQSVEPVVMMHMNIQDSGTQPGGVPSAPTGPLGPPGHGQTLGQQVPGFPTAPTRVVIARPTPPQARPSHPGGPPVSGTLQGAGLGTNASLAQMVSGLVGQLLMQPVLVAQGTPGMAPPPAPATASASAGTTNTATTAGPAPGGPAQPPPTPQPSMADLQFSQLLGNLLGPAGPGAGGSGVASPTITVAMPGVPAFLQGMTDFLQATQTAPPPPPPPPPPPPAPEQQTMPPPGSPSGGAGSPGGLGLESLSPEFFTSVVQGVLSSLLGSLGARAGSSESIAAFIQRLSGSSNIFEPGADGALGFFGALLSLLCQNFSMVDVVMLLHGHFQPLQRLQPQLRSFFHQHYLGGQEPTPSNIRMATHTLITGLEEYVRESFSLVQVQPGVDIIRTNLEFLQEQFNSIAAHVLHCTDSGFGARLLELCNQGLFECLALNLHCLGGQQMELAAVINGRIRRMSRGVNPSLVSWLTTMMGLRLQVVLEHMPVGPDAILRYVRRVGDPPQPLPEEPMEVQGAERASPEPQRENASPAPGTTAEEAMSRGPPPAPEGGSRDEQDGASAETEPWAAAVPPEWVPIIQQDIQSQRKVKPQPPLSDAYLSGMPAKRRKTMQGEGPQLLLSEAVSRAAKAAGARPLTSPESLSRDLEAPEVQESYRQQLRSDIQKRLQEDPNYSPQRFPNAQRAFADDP
UniProt Q9BRP0: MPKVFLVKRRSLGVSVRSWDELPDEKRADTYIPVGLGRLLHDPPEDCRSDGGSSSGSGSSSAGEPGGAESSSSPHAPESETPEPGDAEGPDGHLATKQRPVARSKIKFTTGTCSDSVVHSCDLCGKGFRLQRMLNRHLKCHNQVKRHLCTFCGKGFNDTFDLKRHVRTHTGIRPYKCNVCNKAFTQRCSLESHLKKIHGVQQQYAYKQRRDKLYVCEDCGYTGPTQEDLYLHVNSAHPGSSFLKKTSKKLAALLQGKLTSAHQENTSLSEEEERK
UniProt Q92623: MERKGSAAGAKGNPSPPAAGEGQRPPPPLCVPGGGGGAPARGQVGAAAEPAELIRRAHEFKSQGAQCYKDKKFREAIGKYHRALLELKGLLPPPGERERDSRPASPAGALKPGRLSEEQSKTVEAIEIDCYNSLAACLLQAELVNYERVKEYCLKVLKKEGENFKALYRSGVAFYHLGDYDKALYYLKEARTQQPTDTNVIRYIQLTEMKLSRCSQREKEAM
UniProt Q12926: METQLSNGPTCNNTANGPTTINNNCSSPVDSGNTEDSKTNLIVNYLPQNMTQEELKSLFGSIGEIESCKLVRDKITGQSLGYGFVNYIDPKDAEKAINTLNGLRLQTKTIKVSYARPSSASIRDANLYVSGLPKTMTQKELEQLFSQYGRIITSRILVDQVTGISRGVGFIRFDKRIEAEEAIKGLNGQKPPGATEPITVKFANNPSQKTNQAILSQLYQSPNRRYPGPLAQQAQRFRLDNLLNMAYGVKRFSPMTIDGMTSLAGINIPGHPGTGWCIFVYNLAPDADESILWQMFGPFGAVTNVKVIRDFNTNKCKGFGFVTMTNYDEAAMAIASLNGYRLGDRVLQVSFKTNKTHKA
UniProt P51148: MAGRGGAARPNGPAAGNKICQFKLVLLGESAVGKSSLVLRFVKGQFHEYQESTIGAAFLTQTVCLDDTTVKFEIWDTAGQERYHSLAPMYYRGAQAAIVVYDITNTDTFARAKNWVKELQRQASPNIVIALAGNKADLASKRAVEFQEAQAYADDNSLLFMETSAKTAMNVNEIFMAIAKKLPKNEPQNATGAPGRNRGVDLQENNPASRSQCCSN

What was measured:
Assay in all cases: peptide or protein array; HuProt human proteome microarray; 5 ug/5 ml biotin-labelled LUBAC or OTULIN in solution, 1 h at room temperature; Cy5-streptavidin, scanned at 635 nm; BSA as negative control; hits: Z-score >= 3 and I_(Mean_Ratio) >= 1.4; both purified
BAG6 (human) = BAG6 (human) (UniProt P46379)
C9orf9 (human) = molecular target: T1, C9orf9 (human) (UniProt Q96E40)
T1 sequence: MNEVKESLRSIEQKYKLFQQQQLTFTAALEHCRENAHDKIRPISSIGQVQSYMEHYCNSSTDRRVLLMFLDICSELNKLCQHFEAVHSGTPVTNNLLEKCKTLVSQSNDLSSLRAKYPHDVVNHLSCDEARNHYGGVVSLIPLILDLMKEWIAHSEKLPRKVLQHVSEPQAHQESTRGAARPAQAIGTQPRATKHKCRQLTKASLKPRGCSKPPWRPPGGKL

ZFYVE1 (human) = molecular target: T2, ZFYVE1 (human) (UniProt Q9HBF4)
T2 sequence: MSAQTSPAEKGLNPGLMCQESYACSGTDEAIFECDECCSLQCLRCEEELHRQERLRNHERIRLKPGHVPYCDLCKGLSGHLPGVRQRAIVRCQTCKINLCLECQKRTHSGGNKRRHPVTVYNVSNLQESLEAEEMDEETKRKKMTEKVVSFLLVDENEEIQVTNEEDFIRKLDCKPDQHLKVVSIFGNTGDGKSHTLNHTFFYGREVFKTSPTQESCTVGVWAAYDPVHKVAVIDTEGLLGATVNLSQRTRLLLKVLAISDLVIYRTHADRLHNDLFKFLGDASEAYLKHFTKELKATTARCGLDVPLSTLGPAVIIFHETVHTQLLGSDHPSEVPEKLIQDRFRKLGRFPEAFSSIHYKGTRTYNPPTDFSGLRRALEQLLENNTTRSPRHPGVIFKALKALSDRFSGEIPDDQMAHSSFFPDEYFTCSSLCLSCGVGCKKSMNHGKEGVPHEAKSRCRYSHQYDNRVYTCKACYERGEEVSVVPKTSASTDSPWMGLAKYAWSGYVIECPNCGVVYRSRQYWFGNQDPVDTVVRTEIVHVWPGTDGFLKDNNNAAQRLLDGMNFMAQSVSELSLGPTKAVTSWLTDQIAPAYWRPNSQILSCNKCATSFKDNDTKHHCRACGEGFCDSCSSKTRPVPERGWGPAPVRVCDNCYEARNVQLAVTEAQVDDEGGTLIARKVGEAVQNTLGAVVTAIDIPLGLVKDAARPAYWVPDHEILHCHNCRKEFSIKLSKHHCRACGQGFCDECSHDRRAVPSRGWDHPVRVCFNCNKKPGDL

OVOL2 (human) = OVOL2 (human) (UniProt Q9BRP0)
TTC9 (human) = TTC9 (human) (UniProt Q92623)
MBNL3 (human) = molecular target: T3, MBNL3 (human) (UniProt Q9NUK0)
T3 sequence: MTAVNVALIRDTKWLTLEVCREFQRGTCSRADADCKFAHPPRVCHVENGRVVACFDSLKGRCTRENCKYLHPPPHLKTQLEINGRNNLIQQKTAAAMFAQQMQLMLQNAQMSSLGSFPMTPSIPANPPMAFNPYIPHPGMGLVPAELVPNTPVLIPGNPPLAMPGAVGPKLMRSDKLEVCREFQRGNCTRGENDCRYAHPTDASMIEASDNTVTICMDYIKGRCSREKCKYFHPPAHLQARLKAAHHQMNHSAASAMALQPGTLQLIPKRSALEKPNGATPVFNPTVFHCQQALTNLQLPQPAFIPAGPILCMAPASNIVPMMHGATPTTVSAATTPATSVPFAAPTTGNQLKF

ELAVL2 (human) = ELAVL2 (human) (UniProt Q12926)
RAB5C (human) = RAB5C (human) (UniProt P51148)
LOR (human) = molecular target: T4, LOR (human) (UniProt P23490)
T4 sequence: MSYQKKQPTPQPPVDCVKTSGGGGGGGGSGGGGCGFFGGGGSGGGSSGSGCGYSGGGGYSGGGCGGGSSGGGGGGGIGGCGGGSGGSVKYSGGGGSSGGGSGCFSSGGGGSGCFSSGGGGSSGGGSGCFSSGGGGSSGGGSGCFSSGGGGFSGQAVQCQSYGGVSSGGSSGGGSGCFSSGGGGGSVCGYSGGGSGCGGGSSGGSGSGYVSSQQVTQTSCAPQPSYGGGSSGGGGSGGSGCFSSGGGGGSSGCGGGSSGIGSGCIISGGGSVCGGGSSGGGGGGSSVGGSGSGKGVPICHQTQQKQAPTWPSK

binding (BAG6 (human)): binds
binding (C9orf9 (human)): binds
binding (ZFYVE1 (human)): binds
binding (OVOL2 (human)): binds
binding (TTC9 (human)): binds
binding (MBNL3 (human)): binds
binding (ELAVL2 (human)): binds
binding (RAB5C (human)): binds
binding (LOR (human)): binds
Substance: linear ubiquitin chain assembly complex (LUBAC), purified as HIS-tagged HOIP with the subunit HOIL-1, biotin-labelled (from UniProt Q96EP0 1-1072; Q9BYM8 1-510)
